Values of other authors, collected in patent US20050267009A1, “Method of Treatment of Acute and Persistent Pain” (priority 2004, published 2005).
At least one structure is not confirmed: it was looked up by name or label, or the drawing left a doubt.

Tests used:
prostaglandin E2 (PGE2) = details: 10 days after CCI, treatment started 12 hours after surgery
interleukin-8 = details: patients with post herpetic neuralgia

SMILES | PGE2 levels in injured nerves and DRG (prostaglandin E2 (PGE2)) | decrease of interleukin-8 concentrations (interleukin-8)
Cc1ccc(-c2cc(C(F)(F)F)nn2-c2ccc(S(N)(=O)=O)cc2)cc1 [celecoxib] | blocked increased PGE2 levels only in nerves | –
C[C@H]1C[C@@H]2[C@H]([C@@H](O)C[C@@]3(C)[C@H]2CC[C@]3(O)C(=O)CO)[C@@]2(C)C=CC(=O)C=C12 [methylprednisolone] | – | 50%
